These are yes or no findings as the source states them, for the method shown.

Protein sequences, listed by entry. Tags and fused reporters are not part of them. Residues count along the entry.
UniProt Q13485, residues 310-552: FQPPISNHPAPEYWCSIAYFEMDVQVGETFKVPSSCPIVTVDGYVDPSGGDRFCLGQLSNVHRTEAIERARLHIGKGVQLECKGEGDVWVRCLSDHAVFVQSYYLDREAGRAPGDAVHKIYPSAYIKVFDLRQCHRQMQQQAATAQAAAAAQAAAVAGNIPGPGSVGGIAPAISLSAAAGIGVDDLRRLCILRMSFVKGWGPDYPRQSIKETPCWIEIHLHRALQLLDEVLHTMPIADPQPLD

Results on one substance are retold here after publication doi:10.1101/2021.04.13.439655.

The assay concerns the target Smad4 core MH2 domain (S4MH2) (UniProt Q13485). Description: SAXS with ensemble optimization method.

As for “Smad4 core MH2 domain (S4MH2) (from UniProt Q13485 310-552) (domain or fragment)”, the binding result is given as “no binding (tested: 19-790 μM)”.
